From PubChem BioAssay AID2517 (National Center for Advancing Translational Sciences (NCATS), 2010)
The whole screen tested about 350,000 compounds, of which about 1,200 (0.34%) were called active. Inconclusive means that the source gave no clear call. Such entries were picked first, then a sample of the others. The call rests on the fitted dose curve; in most records, active means well fitted inhibition curve with a large enough effect; inconclusive means small, poorly fitted or top-dose-only effect; inactive means no such curve, though single readings can be large or run the other way. Potencies of inconclusive entries are doubtful fits and often do not repeat.

Chains of the proteins cited; added tags and fusions are not shown.
UniProt P27695, whole entry, looked up: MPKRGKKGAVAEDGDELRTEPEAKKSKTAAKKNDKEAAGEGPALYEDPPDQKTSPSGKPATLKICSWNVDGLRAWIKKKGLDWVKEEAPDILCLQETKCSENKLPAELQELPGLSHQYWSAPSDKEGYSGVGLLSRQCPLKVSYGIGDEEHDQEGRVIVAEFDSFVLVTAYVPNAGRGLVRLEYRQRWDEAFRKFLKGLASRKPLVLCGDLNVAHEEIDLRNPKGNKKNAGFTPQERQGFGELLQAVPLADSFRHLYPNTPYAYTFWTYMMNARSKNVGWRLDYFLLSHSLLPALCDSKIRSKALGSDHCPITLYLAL

target: DNA repair nuclease/redox regulator APEX1 (Homo sapiens) (UniProt P27695); experiment: qHTS Assay for Inhibitors of the Human Apurinic/apyrimidinic Endonuclease 1 (APE1); conditions: recombinant APE1, TAMRA/BHQ-2 abasic DNA cleavage fluorescence; series mostly up to 65.8 µM; further: nearly all actives have a fitted effect of over 55% in size
Summary of the method: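 Activity was derived from the fluorescence gain between first and third kinetic reads (60 s intervals, ex 525/em 598 nm) after 50 nM THF-abasic TAMRA/BHQ-2 duplex was added to 0.75 nM APE1 preincubated 15 min with compound.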
Potency means the concentration at half of the fitted maximal effect.

SMILES	Potency
COc1cccc(/C=C/C(=O)OCC(=O)c2c[nH]c3ccccc23)c1OC	inconclusive: 39.8 µM [inhibitor, single point]
COc1cc2ccc(=O)oc2c(O)c1O	inconclusive: 2.82 µM [inhibitor, full curve, poor fit]
O=C(NNC(=O)C1CC1)c1cc2cc3ccccc3nc2s1	inconclusive: 8.91 µM [inhibitor, single point]
CCCOc1ccc(C(=O)NCCC(=O)NCCCC(=O)OCC)cc1	inconclusive: 39.8 µM [inhibitor, single point]
Cc1cc(C)c(C(=O)COc2cccnc2[N+](=O)[O-])cc1C	inconclusive: 44.7 µM [inhibitor, single point]
Cn1c(C(O)C(O)c2ccccc2)nc2ccccc21 (configuration not stated)	inactive
COc1cc2cc(Oc3ccc4ccc(=O)oc4c3)c(=O)oc2cc1OC(C)=O	inconclusive: 0.0794 µM [inhibitor, full curve, poor fit]
COc1ccc(C(=O)NC(=S)NNC(=O)c2c(-c3ccccc3)noc2C)cc1OC	inconclusive: 8.91 µM [inhibitor, single point]
O=C(NC1CC1)c1cc(-c2ccco2)nc2ccccc12	active: 11.2 µM
CN1CCN(/C=C2\SC(=S)NC2=O)CC1	inactive
O=C(O)c1cccc(N/N=C/c2ccc(OC(F)(F)F)cc2)c1	inactive
CCC1(c2ccc(O)cc2)NC(=O)N(C)C1=O (configuration not stated)	inconclusive: 8.91 µM [inhibitor, single point]
O=S(=O)(Cc1ccccc1)c1nnnn1C1CCCCC1	inactive
O=C(O)c1ccc2c(c1)C(=O)N(c1cccc(-c3nc4ccccc4s3)c1)C2=O	inactive
Cc1cc(C(=O)OCC(=O)NCc2ccccc2)c(C)o1	inconclusive: 3.98 µM [inhibitor, full curve, poor fit]
Cc1nc(-c2ccc3c(c2)CCC(=O)N3)cs1	inconclusive: 3.16 µM [inhibitor, single point]
CC(C)(Oc1ccc(Cl)cc1)C(=O)Nc1cccc(S(=O)(=O)NC2=NCCC2)c1	inactive
N/C(=N\OC(=O)Nc1ccccc1)c1ncc([N+](=O)[O-])s1	inconclusive: 35.5 µM [inhibitor, single point]
COc1ccc2[nH]c3c(=O)n(CCCCC(=O)N4CCC(C(N)=O)CC4)c(=S)[nH]c3c2c1	inconclusive: 0.891 µM [inhibitor, single point]
O=C1NC(=S)SC1=C1CCCC1	active: 10 µM
Nc1cc(C(=O)O)c(N)c2c1C(=O)c1ccccc1C2=O	inconclusive: 28.2 µM [inhibitor, single point]
O=C(Cn1cnc2c(nnn2-c2ccccc2)c1=O)NCc1ccc(F)cc1	inconclusive: 35.5 µM [inhibitor, single point]
CC1(C)c2ccccc2N2CC(=O)N(CC(N)=O)C21C (configuration not stated)	inconclusive: 31.6 µM [inhibitor, single point]
CCOC(=O)c1ccccc1NC(=O)c1ccc2nccnc2c1	inactive

SMILES	Potency
COc1ccccc1/C=C1\SC(=S)N(C(C(=O)O)c2ccccc2)C1=O (configuration not stated)	inactive
CNc1ccc(/C=C/C(=O)c2ccc(C)cc2)cc1[N+](=O)[O-]	inactive
COC(=O)c1c(C)[nH]c(C(=O)CSc2ncnc3sc(-c4ccccc4)cc23)c1C	inconclusive: 44.7 µM [inhibitor, single point]
Cc1ccc(C(=O)NN2CC(O)=C(c3nc(-c4cccc([N+](=O)[O-])c4)cs3)C2=N)cc1	inactive
Cc1ncc(S(=O)(=O)c2ccccc2)c(-c2ccc(Cl)cc2Cl)n1	inconclusive: 70.8 µM [inhibitor, partial curve, poor fit]
S=C(NCCc1ccccc1)Nc1ccccc1Cl	inconclusive: 11.2 µM [inhibitor, partial curve, poor fit]
COc1ccc(CCN2C(=O)CSC2=S)cc1OC	inconclusive: 23.8 µM [inhibitor, single point]
CCOC(=O)C(C)Sc1nc2c(c(=O)[nH]c(=O)n2C)n1C/C=C(/C)Cl (configuration not stated)	inconclusive: 31.6 µM [inhibitor, partial curve]
Cc1ccccc1-c1cc(C(=O)N2CCCC2)c2ccccc2n1	inactive
S=C(NCCN1CCOCC1)Nc1ccc(Br)cc1	inconclusive: 0.01 µM [inhibitor, full curve]
Cc1csc2c(=O)sc(NC(=O)c3ccc(F)cc3Cl)nc12	inconclusive: 22.4 µM [inhibitor, single point]
CSC1=NSC2=NC(=O)/C(=C/c3coc4ccc(O)cc4c3=O)C(=N)N12	inconclusive: 25.1 µM [inhibitor, partial curve, poor fit]
CCn1cc(C(=O)NCc2ccc(C)o2)c2cc(OC)c(OC)cc2c1=O	inactive
Cn1c2ccccc2c(=O)c2ccc(C#CC3(N)CCCCC3)cc21	inactive
NNC(=O)c1oc2nc(-c3ccco3)cc(-c3ccco3)c2c1N	inconclusive: 39.8 µM [inhibitor, single point]
S=C(c1cn(Cc2ccccc2)c2ccccc12)N1CCOCC1	inconclusive: 39.8 µM [inhibitor, single point]
C=C1CCN(C(C)C(=O)OCc2ccc(C)cc2)S(=O)(=O)c2ccccc21 (configuration not stated)	inconclusive: 44.7 µM [inhibitor, single point]
COC(=O)CCC(NC(=O)c1cc(C)oc1C)C(=O)OC (configuration not stated)	inconclusive: 22.4 µM [inhibitor, single point]
CCOc1ccc(N=C/C=C/c2ccccc2)c(O)c1	inactive
Fc1ccc(CNC(=S)NC2CCCC2)cc1	inconclusive: 10 µM [inhibitor, single point]
CCC(C)Oc1nc2ccccc2nc1NS(=O)(=O)c1ccccc1 (configuration not stated)	inconclusive: 3.16 µM [inhibitor, single point]
Cc1ccc(/C=C/C(=O)NCc2ccccn2)o1	inconclusive: 17.8 µM [inhibitor, partial curve]
NS(=O)(=O)c1ccc(O)c(N2C(=O)c3cccc4c(C(=O)c5ccccc5)ccc(c34)C2=O)c1	inconclusive: 44.7 µM [inhibitor, single point]

Copied from the list:
O=C(NNC(=O)C1CC1)c1cc2cc3ccccc3nc2s1 – Potency: inconclusive: 8.91 µM [inhibitor, single point]
COc1cc2cc(Oc3ccc4ccc(=O)oc4c3)c(=O)oc2cc1OC(C)=O – Potency: inconclusive: 0.0794 µM [inhibitor, full curve, poor fit]
